Results from PubChem BioAssay AID504444 (National Center for Advancing Translational Sciences (NCATS), 2011).
In all, about 360,000 compounds went through this assay and about 7,500 (2.1%) were called active. The shares of active, inactive and inconclusive entries below differ from those in the screen. Calls follow the shape of the dose curve; as a rule, active = well fitted inhibition curve with a large enough effect; inconclusive = small, poorly fitted or top-dose-only effect, or effect the other way; inactive = flat fitted curve, though single readings scatter. Potencies beside an inconclusive call are fits to weak or partial responses and may not hold up.

Assay: Nrf2 qHTS screen for inhibitors; also: nearly all actives have a fitted effect of over 60% in size
Conditions: A549 ARE-Fluc reporter, luciferase luminescence, 18-24 h; activity change, negative = inhibition: at 46 µM (top of the series)
Summary of the method: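 Two sequential reads on A549 ARE_Fluc cells exposed to compound for 18-24 h: a CellTiter-Fluor fluorescence read for viability, then a luciferase luminescence read for Nrf2/ARE activity.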
% is scaled to controls: 0 for no effect and ±100 for the full control effect; potency is read from the fitted curve at half-maximal effect.

SMILES	Potency	activity change, negative = inhibition
CC1CC1C(=O)Nc1nc(-c2ccc(Cl)s2)cs1 (stereo not given)	active: 23.1 µM	–
Cc1cc(-c2nnc3sc(C4CCCCC4)nn23)n[nH]1	inconclusive: 29.1 µM [falling, single point]	–
CCOC(=O)C1CCCN(C(=O)c2cc(-c3ccc(C)cc3)nc3ccccc23)C1 (stereo not given)	–	inactive: 1.9%
O=C(Nc1ccc(Br)c(Br)c1)C1CCCO1 (stereo not given)	inconclusive: 0.731 µM [falling, partial curve, poor fit]	–
COc1ccc(C(=O)O/N=C(\N)Cc2ccc(Cl)cc2)cc1OC	inconclusive: 16.4 µM [falling, partial curve]	–
Cc1cc(C)n2c3c(c(C#N)c2n1)CCCC3	inconclusive: 7.31 µM [activator, partial curve, poor fit]	–
O=C1NCCOC(=O)[C@@H](Cc2ccc(F)cc2)CC/C=C/C[C@@H]1CC(=O)N(CCO)Cc1ccccc1	–	inactive: 7.96%
O=[N+]([O-])c1cc(Cl)ccc1NCCNc1ncc(C(F)(F)F)cc1Cl	–	inactive: -11.1%
O=C(CCN1C(=O)C2C3C=CC(C3)C2C1=O)N1CCN(c2ccc([N+](=O)[O-])cc2)CC1 (stereo not given)	inconclusive: 29.1 µM [falling, single point]	–
O=C(Cn1cc(C(F)(F)F)cc(Cl)c1=O)NCc1ccc(Cl)cc1Cl	inconclusive: 14.6 µM [activator, partial curve, poor fit]	–
Cc1ccc(CNC(=S)NC2CCCCC2)cc1	–	inactive: 3.4%
Cc1nc(N2CCN(Cc3ccc4c(c3)OCO4)CC2)c2oc3ccccc3c2n1	inconclusive: 18.4 µM [falling, single point]	–
N/C(=N\OC(=O)N1CCOCC1)c1ccccc1	inconclusive: 29.1 µM [activator, single point]	–
O=C(CC(SCCO)c1ccc([N+](=O)[O-])cc1)c1ccco1 (stereo not given)	inconclusive: 29.1 µM [falling, single point]	–
COc1cccc(OC)c1Nc1nc(C)nc2c1nnn2Cc1ccccc1Cl	–	inactive: 6.19%
O=C1CCCN1CCCNCC(=O)N1c2ccccc2Sc2ccccc21	–	inactive: 5.11%
O=C(CSc1n[nH]c(-c2ccco2)n1)N1c2ccccc2Sc2ccccc21	inconclusive: 29.1 µM [activator, single point]	–
O=C(Cc1ccccc1)Nc1nccs1	inconclusive: 29.1 µM [falling, single point]	–
OCc1ccccc1OCCOc1ccc(Cl)c2cccnc12	–	inactive: 12.9%
CN(C1CCCCC1)S(=O)(=O)c1ccc(C(=O)N2CCN(c3nc4ccccc4s3)CC2)cc1	inconclusive: 23.1 µM [falling, single point]	–
CCN1/C(=C2\C(=O)N(C)C(=S)N2C)C=Cc2ccccc21	inconclusive: 13 µM [falling, partial curve, poor fit]	–
O=S1(=O)CCN(Cc2cccc(C(F)(F)F)c2)CC1	inconclusive: 14.6 µM [falling, partial curve, poor fit]	–

SMILES	Potency	activity change, negative = inhibition
COC(=O)C1=CN(C(C)C)C=C(C(=O)OC)C1c1cc(Br)c(OC)c(OC)c1	inconclusive: 29.1 µM [falling, single point]	–
CCc1ccc(NC(=O)CC2C(=O)OCCN2CC)cc1 (stereo not given)	inconclusive: 6.51 µM [falling, partial curve, poor fit]	–
Cc1ccc(N=Cc2c(O)[nH]c3ccccc23)c([N+](=O)[O-])c1	inconclusive: 4.61 µM [activator, full curve, poor fit]	–
CCOc1ccc(N(CC(=O)N2CCN(C(=O)CN(c3ccc(OCC)cc3)S(C)(=O)=O)CC2)S(C)(=O)=O)cc1	–	inactive: 4.57%
CCOC(=O)c1ccc(N2C(=O)c3n[nH]c(-c4cccs4)c3C2c2cccc(F)c2)cc1 (stereo not given)	inconclusive: 29.1 µM [falling, single point]	–
CCOc1ccccc1NC(=O)C(CC(C)C)NS(=O)(=O)c1ccc2c(c1)CCN2C(C)=O (stereo not given)	inconclusive: 1.84 µM [falling, partial curve, poor fit]	–
COc1ccc(Nc2cc(Sc3ccc(OC)cc3)ncn2)cc1	inconclusive: 29.1 µM [falling, single point]	–
Cc1cccc(NC(=O)c2cc(S(=O)(=O)c3ccccc3)ccc2Cl)c1	inconclusive: 20.6 µM [falling, single point]	–
CCOC(=O)C1=C(C)NC(=O)NC1c1ccc(N(CC)CC)cc1 (stereo not given)	inconclusive: 11.6 µM [falling, partial curve, poor fit]	–
CC(=O)CSc1ncnc2sc3c(c12)CCCC3	inconclusive: 32.6 µM [falling, single point]	–
CC(C)CNC(=O)CCSc1nc(-c2ccc3c(c2)OCO3)cc(C(F)(F)F)n1	inconclusive: 3.26 µM [falling, partial curve, poor fit]	–
COC(=O)C1=C(C)N(CCc2c[nH]c3ccccc23)C(=O)C1	inconclusive: 23.1 µM [activator, single point]	–
Nc1nc2c(nc(Br)n2[C@@H]2O[C@@H]3COP(=O)(O)O[C@H]3[C@H]2O)c(=O)[nH]1	inconclusive: 0.461 µM [falling, full curve, poor fit]	–
COc1cnc(-c2ccccn2)nc1Sc1ccc(Cl)cc1	–	inactive: 17.5%
CCOc1ccc(-c2c(C(=O)N/N=C(\C)c3ccco3)nnn2-c2nonc2N)cc1	inconclusive: 23.1 µM [falling, single point]	–
COc1ccc(N(CC(=O)Nc2ccccc2C)S(=O)(=O)c2ccccc2[N+](=O)[O-])c(OC)c1	inconclusive: 25.9 µM [falling, single point]	–
C=CCOc1ccc2c(c1)c(S(=O)(=O)c1ccc(C)cc1)cn2COC	inconclusive: 23.1 µM [falling, single point]	–
CC(C)CC1c2[nH]c3ccccc3c2CCN1C(=O)c1cnccn1 (stereo not given)	inconclusive: 23.1 µM [activator, partial curve]	–
CC1CC(C)CN(c2nc(NCc3ccco3)nc(N)c2[N+](=O)[O-])C1 (stereo not given)	active: 23.1 µM	–
O=c1c2ccccc2nnn1CSc1nnc(-c2cccs2)n1Cc1ccccc1	inconclusive: 29.1 µM [activator, single point]	–
O=C(c1cccc([N+](=O)[O-])c1)n1nc(-c2ccccc2)nc1NCc1ccccc1	inconclusive: 20.6 µM [activator, single point]	–
Cc1[nH]c2ccccc2c1/C=C/c1cc[n+](C)cc1	active: 2.06 µM	–

One compound at a time, from the list above. Order of values: Potency | activity change, negative = inhibition
CC1CC(C)CN(c2nc(NCc3ccco3)nc(N)c2[N+](=O)[O-])C1 (stereo not given) as listed: active: 23.1 µM | –
COc1ccc(N(CC(=O)Nc2ccccc2C)S(=O)(=O)c2ccccc2[N+](=O)[O-])c(OC)c1 as listed: inconclusive: 25.9 µM [falling, single point] | –
Nc1nc2c(nc(Br)n2[C@@H]2O[C@@H]3COP(=O)(O)O[C@H]3[C@H]2O)c(=O)[nH]1 as listed: inconclusive: 0.461 µM [falling, full curve, poor fit] | –

Continued:

SMILES	Potency	activity change, negative = inhibition
Cc1cc(C(=O)NC2CCCc3c2cnn3-c2cccc(C)c2C)no1 (stereo not given)	inconclusive: 0.58 µM [activator, partial curve, poor fit]	–
O=c1c2ccccc2nc2n1CC/C2=C/N1CCN(c2cccc(C(F)(F)F)c2)CC1	–	inactive: 2.33%
CCCC(=O)NC(c1ccc2c(c1)OCO2)c1cc(Cl)c2cccnc2c1O (stereo not given)	inconclusive: 20.6 µM [falling, partial curve]	–
COC(=O)C1=C[C@@H](C(=O)OC)C2C3=C(C(=O)[C@]2(C)NC(=O)c2ccccc2)[C@H](C)n2c(=O)n(C)c(=O)n2[C@@H]3C1 (stereo not given in full)	–	inactive: 5.22%
Cc1cc(C)c(S(=O)(=O)N2CCN(C(=O)CCn3nc(C)c(C)c3C)CC2)c(C)c1	inconclusive: 20.6 µM [falling, partial curve]	–
Nc1ccc(N=Nc2ccccc2)cc1[N+](=O)[O-]	inconclusive: 18.4 µM [activator, single point]	–
CCc1ccc(-n2nc(C)c3c(C)cc(=O)n(CC(=O)Nc4ccc(C)c(F)c4)c32)cc1	inconclusive: 29.1 µM [activator, single point]	–
O=S(=O)(c1cccc2nonc12)N1CCCCC1	inconclusive: 0.0517 µM [falling, full curve, poor fit]	–
Fc1ccccc1/C=C/c1ccc2ccccc2n1	inconclusive: 2.31 µM [activator, partial curve]	–
Cc1ccc(C)c(C(=O)CCC(=O)Nc2ccc(N3CCN(C)CC3)cc2C)c1	–	inactive: 1.74%
Cc1ccc(C(=O)NCCC2=CCCCC2)cc1S(=O)(=O)N1CCOCC1	inconclusive: 6.51 µM [activator, partial curve]	–
CN(C)c1ccc(NC(=O)CCSc2nc(-c3ccco3)cc(C(F)(F)F)n2)cc1	inconclusive: 8.2 µM [falling, partial curve, poor fit]	–
CN(CCOc1ccccc1)C(=O)c1ccc(OC2CCN(C(=O)C3CC3)CC2)cc1	inconclusive: 25.9 µM [falling, single point]	–
CCOC(=O)c1sc(N2N=C(C)/C(=C\c3ccc(OCC(=O)OC)cc3)C2=O)nc1C	inconclusive: 4.61 µM [falling, single point]	–
CC1=C(c2ccccc2)C(O)(c2ccccc2)C(C)C1=O (stereo not given)	–	inactive: -12.7%
O=C(NC(=S)Nc1cccc2[nH]ncc12)c1ccccc1	inconclusive: 3.26 µM [activator, partial curve]	–
O=C(NCCCN1CCCC1=O)C(=O)Nc1cccc(F)c1	inconclusive: 10.3 µM [activator, partial curve]	–
O=S(=O)(c1ccccc1)c1nc(-c2ccccc2)oc1NCc1cccnc1	inconclusive: 9.2 µM [falling, partial curve, poor fit]	–
O=C(NC(=S)Nc1ccc2c(c1)OCO2)c1ccc(Cl)cc1	inconclusive: 2.31 µM [activator, full curve]	–
CC1CCN(S(=O)(=O)c2ccc3c(c2)N(CC(=O)NC(C)c2ccccc2)C(=O)CO3)CC1 (stereo not given)	inconclusive: 0.0058 µM [activator, full curve, poor fit]	–
CC(C)(C)CNc1nc(C#N)nc(Nc2ccccc2)n1	active: 18.4 µM	–
